Test results from PMC8165255.
These are yes or no findings as the source states them, for the method shown. Binding seen in cells or lysates may run through a third protein. A yes stands for co-enrichment or nearness to the bait. Other partners may have been found.

Amino acid sequences for entries named in this document (tags omitted).
UniProt O14746: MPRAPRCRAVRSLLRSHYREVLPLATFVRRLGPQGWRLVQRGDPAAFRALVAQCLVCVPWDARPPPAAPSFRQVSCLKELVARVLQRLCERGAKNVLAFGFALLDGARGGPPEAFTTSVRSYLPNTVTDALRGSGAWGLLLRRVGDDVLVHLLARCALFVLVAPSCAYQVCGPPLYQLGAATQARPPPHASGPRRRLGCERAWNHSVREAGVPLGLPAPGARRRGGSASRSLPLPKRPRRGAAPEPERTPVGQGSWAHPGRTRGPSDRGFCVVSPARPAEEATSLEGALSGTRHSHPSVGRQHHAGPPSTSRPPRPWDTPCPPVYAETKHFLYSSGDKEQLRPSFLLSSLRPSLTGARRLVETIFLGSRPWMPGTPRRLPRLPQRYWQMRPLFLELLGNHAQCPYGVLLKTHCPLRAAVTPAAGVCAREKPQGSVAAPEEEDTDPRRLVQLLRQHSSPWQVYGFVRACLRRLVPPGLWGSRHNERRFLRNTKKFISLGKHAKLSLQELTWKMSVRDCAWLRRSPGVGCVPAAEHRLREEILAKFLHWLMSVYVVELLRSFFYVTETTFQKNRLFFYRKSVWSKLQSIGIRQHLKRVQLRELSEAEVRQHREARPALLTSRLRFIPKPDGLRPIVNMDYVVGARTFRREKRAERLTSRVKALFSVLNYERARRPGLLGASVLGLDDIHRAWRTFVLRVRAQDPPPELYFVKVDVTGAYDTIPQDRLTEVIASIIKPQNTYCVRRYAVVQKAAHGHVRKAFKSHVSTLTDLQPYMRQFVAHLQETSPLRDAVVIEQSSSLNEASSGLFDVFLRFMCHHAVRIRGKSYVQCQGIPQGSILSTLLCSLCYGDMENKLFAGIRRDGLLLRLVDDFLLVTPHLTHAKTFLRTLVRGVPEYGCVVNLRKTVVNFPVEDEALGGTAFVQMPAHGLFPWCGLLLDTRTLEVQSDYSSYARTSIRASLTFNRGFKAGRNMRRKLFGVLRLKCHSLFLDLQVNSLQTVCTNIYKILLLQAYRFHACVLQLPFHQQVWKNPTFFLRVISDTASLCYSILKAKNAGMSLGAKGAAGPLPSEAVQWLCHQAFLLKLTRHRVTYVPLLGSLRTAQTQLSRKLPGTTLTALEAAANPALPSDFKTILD
UniProt P13010: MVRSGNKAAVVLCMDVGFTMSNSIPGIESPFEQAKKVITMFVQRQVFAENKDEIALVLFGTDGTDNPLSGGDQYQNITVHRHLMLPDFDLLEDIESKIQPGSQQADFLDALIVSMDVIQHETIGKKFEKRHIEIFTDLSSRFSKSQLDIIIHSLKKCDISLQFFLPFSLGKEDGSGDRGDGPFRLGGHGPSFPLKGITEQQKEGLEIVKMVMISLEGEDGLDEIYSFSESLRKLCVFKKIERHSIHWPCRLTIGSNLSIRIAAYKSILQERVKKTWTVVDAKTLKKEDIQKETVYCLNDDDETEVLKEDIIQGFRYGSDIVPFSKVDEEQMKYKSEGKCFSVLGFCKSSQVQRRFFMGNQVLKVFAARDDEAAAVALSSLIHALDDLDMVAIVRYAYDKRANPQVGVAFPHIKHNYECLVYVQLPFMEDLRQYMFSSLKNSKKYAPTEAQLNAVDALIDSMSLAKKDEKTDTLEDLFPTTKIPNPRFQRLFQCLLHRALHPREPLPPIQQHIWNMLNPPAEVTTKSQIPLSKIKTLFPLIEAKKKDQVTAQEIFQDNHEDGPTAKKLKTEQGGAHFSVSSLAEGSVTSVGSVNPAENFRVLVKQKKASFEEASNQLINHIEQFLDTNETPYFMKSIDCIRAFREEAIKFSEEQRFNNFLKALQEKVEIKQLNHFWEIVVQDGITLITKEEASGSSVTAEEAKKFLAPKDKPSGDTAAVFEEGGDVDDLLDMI
UniProt P67809: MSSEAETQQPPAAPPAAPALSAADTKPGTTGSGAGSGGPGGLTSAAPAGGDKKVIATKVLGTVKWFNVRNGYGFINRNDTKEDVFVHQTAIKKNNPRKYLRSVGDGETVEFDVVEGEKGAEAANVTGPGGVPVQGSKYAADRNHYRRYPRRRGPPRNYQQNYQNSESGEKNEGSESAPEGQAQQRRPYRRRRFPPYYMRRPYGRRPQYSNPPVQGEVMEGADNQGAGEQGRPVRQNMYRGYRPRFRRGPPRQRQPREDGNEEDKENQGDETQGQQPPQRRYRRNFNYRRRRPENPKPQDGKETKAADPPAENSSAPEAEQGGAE

Target: Human telomerase reverse transcriptase (human (endogenous in HCT116)) (UniProt O14746)
Test: affinity purification with mass spectrometry; hTERT immunoprecipitation (IP) followed by LC-MS, performed three times; cells not given

binding	Molecule
binds	XRCC5 (from UniProt P13010 1-732)
binds	YBX1 (from UniProt P67809 1-324)
binds	ILF3 (protein, UniProt Q12906 1-894) MRPMRIFVNDDRHVMAKHSSVYPTQEELEAVQNMVSHTERALKAVSDWIDEQEKGSSEQAESDNMDVPPEDDSKEGAGEQKTEHMTRTLRGVMRVGLVAKGLLLKGDLDLELVLLCKEKPTTALLDKVADNLAIQLAAVTEDKYEILQSVDDAAIVIKNTKEPPLSLTIHLTSPVVREEMEKVLAGETLSVNDPPDVLDRQKCLAALASLRHAKWFQARANGLKSCVIVIRVLRDLCTRVPTWGPLRGWPLELLCEKSIGTANRPMGAGEALRRVLECLASGIVMPDGSGIYDPCEKEATDAIGHLDRQQREDITQSAQHALRLAAFGQLHKVLGMDPLPSKMPKKPKNENPVDYTVQIPPSTTYAITPMKRPMEEDGEEKSPSKKKKKIQKKEEKAEPPQAMNALMRLNQLKPGLQYKLVSQTGPVHAPIFTMSVEVDGNSFEASGPSKKTAKLHVAVKVLQDMGLPTGAEGRDSSKGEDSAEETEAKPAVVAPAPVVEAVSTPSAAFPSDATAEQGPILTKHGKNPVMELNEKRRGLKYELISETGGSHDKRFVMEVEVDGQKFQGAGSNKKVAKAYAALAALEKLFPDTPLALDANKKKRAPVPVRGGPKFAAKPHNPGFGMGGPMHNEVPPPPNLRGRGRGGSIRGRGRGRGFGGANHGGYMNAGAGYGSYGYGGNSATAGYSQFYSNGGHSGNASGGGGGGGGGSSGYGSYYQGDNYNSPVPPKHAGKKQPHGGQQKPSYGSGYQSHQGQQQSYNQSPYSNYGPPQGKQKGYNHGQGSYSYSNSYNSPGGGGGSDYNYESKFNYSGSGGRSGGNSYGSGGASYNPGSHGGYGGGSGGGSSYQGKQGGYSQSNYNSPGSGQNYSGPPSSYQSSQGGYGRNADHSMNYQYR
